This passage reports binding signal results from paper PMC7819943, “Rice protein-binding microarrays: a tool to detect cis-acting elements near promoter regions in rice”.

Some of the results follow.

The target of the experiment is T1, OsSMF1 (Oryza sativa, UniProt Q6ZLB0 1-436).
T1 sequence: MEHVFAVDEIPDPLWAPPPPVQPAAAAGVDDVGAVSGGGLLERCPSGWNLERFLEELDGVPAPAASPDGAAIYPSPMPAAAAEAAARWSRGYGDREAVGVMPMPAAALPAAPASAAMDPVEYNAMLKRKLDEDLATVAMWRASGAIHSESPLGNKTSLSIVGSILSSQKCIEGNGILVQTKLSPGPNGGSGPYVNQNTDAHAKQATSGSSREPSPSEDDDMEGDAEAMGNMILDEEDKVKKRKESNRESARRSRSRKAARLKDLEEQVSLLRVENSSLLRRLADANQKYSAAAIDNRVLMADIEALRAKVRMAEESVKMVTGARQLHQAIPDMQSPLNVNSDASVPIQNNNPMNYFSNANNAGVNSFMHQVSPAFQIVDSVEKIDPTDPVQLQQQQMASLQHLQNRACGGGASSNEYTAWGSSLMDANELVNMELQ
Put plainly: protein-binding microarray (RPBM); PBS, 2% BSA, 51.3 ng/ul salmon testes DNA, 50 uM zinc acetate, 200 nM TF, 25 C, 1 h; high values mean tight binding. As to conditions: protein: recombinant; tags: N-terminal polyhistidine and DsRed monomer fusion (pET32a); chain copies: 2; label: CyDye5-dUTP incorporated in the synthesized complementary strand; 3' TTTTT single-stranded linker to array surface; dsDNA, one strand shown. The method, boiled down:
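Transcription factors were made in E. coli BL21-CodonPlus as N-terminal fusions to a polyhistidine tag and DsRed, then purified on Ni–NTA. After primer extension with Cy5-dUTP and blocking with 2% BSA, a custom Agilent array was exposed for 1 h at 25 °C to 200 nM protein in PBS, 2% BSA, salmon testes DNA and 50 µM zinc acetate. Washed arrays were scanned on an Axon 4000B, and the binding signal is per-feature fluorescence intensity in arbitrary units.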
For the sequence “ATGTAATATTTTAGGATGATCATTAGCGTGAGTCACGCTGCGGAGTCACCTAGTGCAG”, the binding signal was 7480 fluorescence intensity (a.u.).
Then “ATGAATGCCGTTCTTGCTTTATCCAGTACATGTAAACATTCGGAGTCACCTAGTGCAG”, with 3380 fluorescence intensity (a.u.).
For the sequence “GGGCCCACGCCCGCACGTGCCAGTGTTACTCCACCTGTCACGGAGTCACCTAGTGCAG”, the binding signal was 3150 fluorescence intensity (a.u.).
To “TGGCGGCGTGGAGCCGCGAGGGCGGTGGCGGCGGGGAGTTCGGAGTCACCTAGTGCAG” belongs 3380 fluorescence intensity (a.u.).
To “CAGTCGAGTTTTGAATATTTAGATCAATCATATACCATTACGGAGTCACCTAGTGCAG” belongs 34500 fluorescence intensity (a.u.).
As to “TGGGGCCCACGTGGACCCCACCTGTCATCCTCATTACCCCCGGAGTCACCTAGTGCAG”, the binding signal was 13400 fluorescence intensity (a.u.).
To “CCATCTAAAACAGTTCGCGTGCAGTCCAGCTCCAGCCCAACGGAGTCACCTAGTGCAG” belongs 3190 fluorescence intensity (a.u.).
Then “TGTCGCCACTAGCCGCCGCCAACCACCAACCCGTCATCGACGGAGTCACCTAGTGCAG”, with 3230 fluorescence intensity (a.u.); and “ATAAAATAATGCGACCGGTGTCCTACGGCTAATTACACGTCGGAGTCACCTAGTGCAG”, with 3240 fluorescence intensity (a.u.).
In the case of “CGGTCAGGGTCGCGTGTCAGCCACACCATTGGGATTGGCGCGGAGTCACCTAGTGCAG”, the binding signal was 3370 fluorescence intensity (a.u.).
To “ACCGAACCACACAACAACCGTCGCGGAACCACCACATCATCGGAGTCACCTAGTGCAG” belongs 4910 fluorescence intensity (a.u.); to “GGTTGAGGCAATGACAATGGCGCAGCAGCTTTCTCTGAGGCGGAGTCACCTAGTGCAG”, 3800 fluorescence intensity (a.u.).
For “TTGATCTTTAATTAGTACATGAAAGACACGTAGATTTTGACGGAGTCACCTAGTGCAG”, the binding signal was 3930 fluorescence intensity (a.u.).
To “CGCCGCTCGATCCGCCTTGGCGCTTGCCCACGCGTCCACGCGGAGTCACCTAGTGCAG” belongs 5990 fluorescence intensity (a.u.).
Then “GTGTAACACACCATTCCCTGACGTCGCAGCAATGGACCAGCGGAGTCACCTAGTGCAG”, with 3780 fluorescence intensity (a.u.); and “GATGGTGACTTTTCCACAACTGCATTCAGGATGCTAGGCTCGGAGTCACCTAGTGCAG”, with 3350 fluorescence intensity (a.u.).
Then “ATTTAATAAAACTTATTTGGTGTTGTAAATGTTGCTAAATCGGAGTCACCTAGTGCAG”, with 26700 fluorescence intensity (a.u.).
Turning to “GTGAAATCTCCTCTTGACCCCGCGATGACTACGCCGCACTCGGAGTCACCTAGTGCAG”, the binding signal is 3230 fluorescence intensity (a.u.).
For the sequence “CCGGCCACCGCACGCTGACGTGTGGGGCCCACGCGGCCACCGGAGTCACCTAGTGCAG”, the binding signal is 13600 fluorescence intensity (a.u.).
Then “CTATATGTCTGTATATGACTTCGCAATCAGCCAATCAATTCGGAGTCACCTAGTGCAG”, with 3260 fluorescence intensity (a.u.).
Then “AGAAAAGGACATGCACATACTACTCTCTGACTCAGCAAACCGGAGTCACCTAGTGCAG”, with 12400 fluorescence intensity (a.u.); and “TCACTCGGCCTACATGGGCTGACGCTGCGGCCTGCTTCGGCGGAGTCACCTAGTGCAG”, with 4910 fluorescence intensity (a.u.); and “TAGGGTTGCGGGGCTGACGAAGAACACGCCACCTTCCGCACGGAGTCACCTAGTGCAG”, with 4520 fluorescence intensity (a.u.).
